Results: publication PMC9061857, “A fluorogenic probe for granzyme B enables in-biopsy evaluation and screening of response to anticancer immunotherapies” (Nature Communications, 2022)
Not every entry of the source has a single result; some have several. The list is limited to them. The source may hold further records. Results that share an entry do not match, cause unknown; some may be repeats, others may stem from another dose, organism or construct than stated.

Chains of the proteins cited; added tags and fusions are not shown. Residues count along the entry.
UniProt P10144, 21-247 limits assumed: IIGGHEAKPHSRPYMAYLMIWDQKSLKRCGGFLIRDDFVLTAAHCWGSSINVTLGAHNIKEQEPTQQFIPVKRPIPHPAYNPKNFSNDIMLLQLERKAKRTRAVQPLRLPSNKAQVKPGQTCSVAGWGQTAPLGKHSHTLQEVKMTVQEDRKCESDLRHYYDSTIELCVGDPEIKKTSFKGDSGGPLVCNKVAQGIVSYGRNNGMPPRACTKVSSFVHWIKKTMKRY

Target: human GzmB (hGzmB) (Homo sapiens, UniProt P10144)
Experiment: HPLC conversion of fluorogenic peptides by hGzmB
Type: biochemical
Settings: probe 25 μM (Ac-IEPD-AMC 50 μM), TRIS buffer, 37 °C, HPLC-UV

SMILES: CCC(C)C(NC(=O)CCc1ccc2n1[B-](F)(F)[N+]1=C(C)C=C(C)C1=C2)C(=O)NC(CCC(=O)O)C(=O)N1CCCC1C(=O)NC(CC(=O)O)C(=O)NCCNC(=O)c1ccc(N=Nc2ccc(N(C)C)cc2)cc1 (stereo not shown)
- HPLC conversion (20 nM hGzmB, 2 h): 3% and < 5%
